Results: patent US20210403593A1
No constants are given. Whether binding was seen depends on the method and setting.

What was measured:
[1] = molecular target: T1, Chimera #10 (Homo sapiens (Human)) (UniProt P49961); experiment: FACS on CHO cells; Chimera 2 with human E153 ([..])
T1 sequence: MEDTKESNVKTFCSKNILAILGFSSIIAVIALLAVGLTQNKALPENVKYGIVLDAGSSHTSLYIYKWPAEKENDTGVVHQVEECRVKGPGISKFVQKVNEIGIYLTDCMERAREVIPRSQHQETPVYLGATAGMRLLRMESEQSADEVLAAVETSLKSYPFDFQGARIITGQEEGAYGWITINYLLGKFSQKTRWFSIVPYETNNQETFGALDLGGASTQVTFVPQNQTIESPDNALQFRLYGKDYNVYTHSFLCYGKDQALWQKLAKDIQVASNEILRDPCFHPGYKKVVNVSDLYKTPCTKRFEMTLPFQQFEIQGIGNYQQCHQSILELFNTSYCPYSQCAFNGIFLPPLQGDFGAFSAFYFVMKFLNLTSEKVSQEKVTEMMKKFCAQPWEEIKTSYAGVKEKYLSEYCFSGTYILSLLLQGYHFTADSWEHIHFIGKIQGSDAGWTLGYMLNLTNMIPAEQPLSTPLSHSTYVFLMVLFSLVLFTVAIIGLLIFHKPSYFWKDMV

[2] = molecular target: T2, Chimera #9 (Homo sapiens (Human)) (UniProt P49961); experiment: FACS on CHO cells; Chimera 2 with human D150 ([..])
T2 sequence: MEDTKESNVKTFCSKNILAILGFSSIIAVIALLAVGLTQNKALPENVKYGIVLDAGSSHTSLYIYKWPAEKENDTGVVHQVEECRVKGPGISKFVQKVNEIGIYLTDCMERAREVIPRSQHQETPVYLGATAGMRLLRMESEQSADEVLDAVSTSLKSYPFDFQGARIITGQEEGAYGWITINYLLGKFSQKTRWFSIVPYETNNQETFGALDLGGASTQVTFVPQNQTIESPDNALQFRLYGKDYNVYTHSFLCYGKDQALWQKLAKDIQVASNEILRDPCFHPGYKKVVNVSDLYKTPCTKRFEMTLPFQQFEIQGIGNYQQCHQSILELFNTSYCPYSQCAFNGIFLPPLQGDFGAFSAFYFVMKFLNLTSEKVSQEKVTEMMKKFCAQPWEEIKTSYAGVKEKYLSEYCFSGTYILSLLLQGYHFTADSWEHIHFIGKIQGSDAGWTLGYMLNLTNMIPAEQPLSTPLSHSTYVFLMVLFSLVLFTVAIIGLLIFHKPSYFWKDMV

[3] = molecular target: T2, Chimera #9 (Homo sapiens (Human)); experiment: FACS dot plot, CHO cells, row 'Chimera 2/A150D'
Chimera #2 (human) [4] = molecular target: Chimera #2 (human) (UniProt P49961); experiment: FACS on CHO cells expressing the chimera
[5] = molecular target: T3, Chimera #14 (Homo sapiens (Human)) (UniProt P49961); experiment: FACS on CHO cells expressing the chimera
T3 sequence: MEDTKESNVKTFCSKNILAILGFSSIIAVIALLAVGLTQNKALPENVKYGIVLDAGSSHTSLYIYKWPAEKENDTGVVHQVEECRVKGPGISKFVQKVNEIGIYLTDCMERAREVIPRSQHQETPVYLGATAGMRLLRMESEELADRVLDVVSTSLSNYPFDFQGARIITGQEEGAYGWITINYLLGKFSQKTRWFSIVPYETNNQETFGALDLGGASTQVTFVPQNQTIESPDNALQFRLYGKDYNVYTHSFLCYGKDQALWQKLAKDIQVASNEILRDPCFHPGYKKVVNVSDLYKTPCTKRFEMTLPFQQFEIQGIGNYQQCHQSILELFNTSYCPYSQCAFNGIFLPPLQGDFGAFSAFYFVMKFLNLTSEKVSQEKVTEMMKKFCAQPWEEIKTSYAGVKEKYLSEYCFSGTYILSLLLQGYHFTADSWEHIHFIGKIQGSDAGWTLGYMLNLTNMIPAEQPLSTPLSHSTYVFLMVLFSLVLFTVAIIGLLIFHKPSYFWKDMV

[6] = molecular target: T2, Chimera #9 (Homo sapiens (Human)); experiment: FACS on CHO cells expressing the chimera
[7] = molecular target: T1, Chimera #10 (Homo sapiens (Human)); experiment: FACS on CHO cells expressing the chimera
[8] = molecular target: T4, Chimera #13 (Homo sapiens (Human)) (UniProt P49961); experiment: FACS on CHO cells expressing the chimera
T4 sequence: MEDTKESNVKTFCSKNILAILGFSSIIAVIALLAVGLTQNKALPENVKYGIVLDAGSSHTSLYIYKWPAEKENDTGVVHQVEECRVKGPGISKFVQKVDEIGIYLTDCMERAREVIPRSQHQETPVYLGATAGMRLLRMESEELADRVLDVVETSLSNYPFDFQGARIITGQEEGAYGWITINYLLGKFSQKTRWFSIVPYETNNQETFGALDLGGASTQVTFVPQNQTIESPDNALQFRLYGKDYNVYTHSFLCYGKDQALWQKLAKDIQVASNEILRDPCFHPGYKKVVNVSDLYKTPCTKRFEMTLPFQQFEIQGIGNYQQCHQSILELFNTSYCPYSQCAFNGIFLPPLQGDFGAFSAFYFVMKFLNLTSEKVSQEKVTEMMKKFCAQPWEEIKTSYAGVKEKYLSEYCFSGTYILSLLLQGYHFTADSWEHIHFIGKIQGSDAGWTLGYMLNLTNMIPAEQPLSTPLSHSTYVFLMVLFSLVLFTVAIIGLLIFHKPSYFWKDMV

Chimera #2 (human) [9] = molecular target: Chimera #2 (human) (UniProt P49961); experiment: FACS dot plot, CHO cells, row 'Chimera 2'
[10] = molecular target: T1, Chimera #10 (Homo sapiens (Human)); experiment: FACS dot plot, CHO cells, row 'Chimera 2/S153E'
[11] = molecular target: T4, Chimera #13 (Homo sapiens (Human)); experiment: FACS on CHO cells; human CD39 with mouse D99 and T154
[12] = molecular target: T3, Chimera #14 (Homo sapiens (Human)); experiment: FACS on CHO cells; human CD39 with mouse S153 and T154
Chimera #2 (human) [13] = molecular target: Chimera #2 (human) (UniProt P49961); experiment: FACS on CHO cells; human M1-E142 + mouse Q143-S158 (…) + human Y159-V510

Measured: binding

B1: 31873 (antibody, human IgG4 S228P, kappa, V domains shown)
VH: QVQLVQSGAEVKKPGSSVKVSCKASGGTFSKYGISWVRQAPGQGLEWMGSIIPEFGIANYAQKFQGRVTITADESTSTAYMELSSLRSEDTAVYYCARESGGYRDHRLGVWGQGTMVTVSS
VL: EIVMTQSPATLSVSPGERATLSCRASQSVGSNLAWYQQKPGQAPRLLIYGASTRASGIPARFSGSGSGTEFTLTISSLQSEDFAVYYCQQYLLWPLTFGGGTKVEIKR
no binding (tested: 15 µg/ml): Chimera #2 (human) [4] | [5] | [6] | [7] | [8]
no binding (tested: 15 ug/ml): all other assays above
